According to PubChem BioAssay AID2685 (National Center for Advancing Translational Sciences (NCATS), 2010):
This is one part of the list. Shown are side measurements of this screen, not its main read-out; they come without a call. Compounds called inactive in the main read-out are mostly missing here. The note in brackets gives the kind of curve behind each potency; many fits are weak.

Assay: qHTS Assay for Lipid Storage Modulators in Drosophila S3 Cells;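 for cell number change: cells counted by Cell Tracker Red CMTPX staining in the red channel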
Details: BODIPY lipid droplet fluorescence, 18-24 h; for cell number change: measured here: cell count max response, cells fed with added oleic acid
Procedure, shortened: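 Drosophila S3 cells got compounds at several concentrations plus oleic acid (400 uM solution). Laser-scanning cytometry with 488 nm excitation read lipid droplets at 500-530 nm and cells at 575-640 nm. Percent activity was relative to 20 uM Triacsin C.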

[1] = measured here: lipid fluorescence (Fed channel) AC50, cells fed with added oleic acid
[2] = measured here: cell number channel AC50, cells fed with added oleic acid

Structure (SMILES) | cell number change | AC50 [1] | AC50 [2]
CCn1nc(C)c(C(=O)Nc2cc(Oc3ccc(Cl)cc3)cc([N+](=O)[O-])c2)c1C | 8.44% | 4.11 µM [rising, single point] | 
CNc1nc2c(-c3ccc(Cl)cc3)nnn2c2ccccc12 | -12.5% |  | 
CCC(CC)NC(=O)/C=C/c1cccc([N+](=O)[O-])c1 | 8.31% | 18.4 µM [rising, single point] | 
CCOC(=O)Cc1c(Sc2ccccc2)c2ccccc2n1C | 3.13% | 0.00651 µM [rising, full curve, poor fit] | 
COCCCn1c(Cc2ccccc2)nnc1SCC(=O)N1CCCCC1 | -9.08% |  | 
CC(=O)NCCOC(=O)c1nn(Cc2ccccc2)c(=O)c2ccccc12 | 8.4% | 6.51 µM [rising, single point] | 
CCCOc1ccc(OCCSc2nnc(N)s2)cc1 |  | 0.116 µM [rising, full curve] | 
Cc1ccccc1NC(=O)C1CCCN1S(=O)(=O)c1ccc2c(c1)n(C)c(=O)c(=O)n2C (configuration not stated) | -20.6% | 23.1 µM [falling, single point] | 
Clc1ccc(Cn2ncc3c(NCc4ccccc4)ncnc32)c(Cl)c1 | 2.3% | 20.6 µM [rising, single point] | 
CC(C)(C)NC(=O)CN(C(=O)CNC(=O)c1cccs1)c1ccccc1F | -6.67% |  | 
Cc1ccc(S(=O)(=O)N2CC3CCCN3c3ccc(C(F)(F)F)cc32)cc1 (configuration not stated) | 34.7% |  | 29.1 µM [rising, single point]
O=C(COc1ccc(-c2nnco2)cc1)Nc1c(F)cccc1F | 1.15% | 18.4 µM [rising, single point] | 
O=C(Nc1ccc2c(c1)OCO2)c1ccc2c(c1)OCO2 | 73.7% | 6.51 µM [rising, single point] | 0.00461 µM [rising, full curve, poor fit]
CCOc1ccccc1NC(=O)CCCNC(=O)c1ccc(Cl)cc1 | 2.78% |  | 
CCC1CCCCN1S(=O)(=O)Cc1ccccc1Cl (configuration not stated) | -44.4% |  | 
COc1ccccc1CNC(=O)c1cc(C2CC2)nc2c1cnn2C(C)C | -38.8% | 16.4 µM [falling, single point] | 29.1 µM [falling, single point]
COc1cc(/C=N/NC(=O)COc2ccccc2C)ccc1OC(=O)c1cccs1 | 38.7% |  | 
N#Cc1ccccc1OCCn1cncn1 | -2.36% |  | 
CC(C)C[C@H](NC(=O)OC(C)(C)C)C(=O)N[C@@H](CO)[C@H](O)[C@@H]1C[C@@H]1C(=O)NC1CC1 | 23.6% |  | 
CCOc1ccccc1N(CC(=O)NC1CCCCC1)C(=O)CCC(=O)Nc1nccs1 | -7.62% | 6.51 µM [rising, single point] | 
COc1cccc(CNC(=O)c2cc3oc4ccccc4c3n2C)c1OC | 3.36% | 7.31 µM [rising, partial curve] | 
CCOC(=O)c1ccc(Cn2cnc3ccccc3c2=O)cc1 |  | 6.51 µM [rising, partial curve] | 0.326 µM [rising, full curve]

Structure (SMILES) | cell number change | AC50 [1] | AC50 [2]
CCc1nc(C(N)=O)c2[nH]c(=O)n(-c3ccccc3F)c2n1 | 6.42% |  | 
CCO[C@H]1c2c(ccc3ccc(=O)oc23)OC(C)(C)[C@@H]1O | 2.89% |  | 
O=C(COC(=O)c1ccccc1)Nc1cccc(S(=O)(=O)N2CCCCC2)c1 | -23.1% | 0.13 µM [rising, full curve, poor fit] | 
Cc1cc(C)nc(N/N=C/c2ccccc2)n1 | 3.27% | 29.1 µM [falling, single point] | 
O=C(Nc1cccc(-c2cn3ccsc3n2)c1)c1ccccc1 | 2.65% | 0.00461 µM [falling, full curve, poor fit] | 
Cc1c(Cl)cccc1NC(=O)CN1CCC(C(O)(c2ccccc2)c2ccccc2)CC1 | -16.7% |  | 
Cc1cc(=O)[nH]c(SCc2cccc(Br)c2)n1 | -32.6% |  | 20.6 µM [falling, single point]
COC(=O)c1ccccc1N(C)S(C)(=O)=O | -38.5% | 29.1 µM [falling, single point] | 
CCOC(=O)c1c(C)[nH]c(C(=O)COC(=O)CN2C(=O)C3CCCCC3C2=O)c1C (configuration not stated) | -16.4% | 1.16 µM [falling, partial curve] | 
O=C(CN1CCCN(Cc2ccc(F)cc2Cl)C1=O)NC1CCCC1 | 15.3% | 0.291 µM [rising, full curve, poor fit] | 
COC(=O)/C=C(\C)NC(=O)c1ccc(F)cc1 | 191% |  | 29.1 µM [rising, single point]
CCN(CC)S(=O)(=O)c1ccc(Cl)c(C(=O)NC(C)C(c2cccs2)N2CCCC2)c1 (configuration not stated) |  |  | 5.8 µM [rising, partial curve, poor fit]
COc1ccc(CCNC(=O)COC(=O)C2CC2C)cc1 (configuration not stated) | 4.76% | 18.4 µM [rising, partial curve] | 
O=C(CSc1nnc2ccc(-c3ccccn3)nn12)Nc1ccccc1 | 23% | 0.116 µM [rising, full curve] | 
CC1CC(C)CN(C(=O)Cn2c(=O)oc3cc(S(=O)(=O)N4CCCC4)ccc32)C1 (configuration not stated) | -14.3% |  | 
COc1cc(NC(=O)CN2CCCCCC2)cc(OC)c1 | -5.56% | 6.51 µM [rising, partial curve, poor fit] | 
CC(c1ccco1)N(C(=O)C12CC3CC(CC(C)(C3)C1)C2)c1ccccn1 (configuration not stated) | -18.3% | 0.58 µM [rising, single point] | 
CCCC(=O)Nc1nc2nc(-c3ccccc3)cc(-c3ccccc3)n2n1 |  | 32.6 µM [falling, single point] | 
Cc1onc(-c2ccccc2)c1C(=O)N1CCCCCC1 | -1.47% |  | 
C/C(=N\NC(=O)c1cccc(S(=O)(=O)Nc2ccc(C)cc2C)c1)c1ccncc1 |  |  | 0.13 µM [rising, full curve]
COCCOC(=O)c1nccnc1C(=O)Nc1ccc(S(=O)(=O)N2CCOCC2)cc1 | -40.5% | 1.84 µM [rising, partial curve] | 29.1 µM [falling, single point]
O=C(CCc1nnc2ccc(NCc3ccco3)nn12)Nc1ccccc1F | -40.2% |  | 0.0259 µM [falling, full curve, poor fit]

Structure (SMILES) | cell number change | AC50 [1] | AC50 [2]
O=C1c2ccccc2C(=O)N1CCC1=CCCCC1 | -12.7% |  | 
Cc1cc(=O)oc2cc(NC(=O)c3cc([N+](=O)[O-])ccc3N3CCOCC3)ccc12 | 37.3% | 0.651 µM [rising, full curve] | 0.0259 µM [rising, full curve, poor fit]
CC(C(=O)Nc1ccc(C#N)cc1)N(C)CC(=O)Nc1ccccc1Br (configuration not stated) | 81.1% | 16.4 µM [rising, single point] | 16.4 µM [rising, single point]
Cc1ccc2cc(C#N)c(N3CCCC3)nc2c1C |  |  | 0.731 µM [falling, single point]
COc1cccc(CC(=O)Nc2ccc3c(c2)CCC3)c1 | -3.95% | 3.55 µM [falling, full curve, poor fit] | 
O=C(O)c1ccc(/C=C2\SC(=S)N(NC(=O)c3ccccc3[N+](=O)[O-])C2=O)cc1 | 12.6% | 2.91 µM [rising, partial curve] | 
CCOC(=O)c1c(NC(=O)CSc2nnc(-c3ccncc3)n2Cc2ccco2)sc(C)c1C | 0.482% | 0.58 µM [rising, partial curve] | 0.291 µM [rising, partial curve]
O=C(Nc1ccc(N2CCCCC2)cc1)c1cccnc1Cl | -5.26% | 29.1 µM [falling, single point] | 
CCOc1ccc(CCNC(=O)c2cccc(-n3cnnn3)c2)cc1OCC |  | 0.0651 µM [falling, full curve] | 
O=C(CNC(=O)c1ccc(Cl)cc1)OCn1nnc2ccccc2c1=O | -6.73% | 2.91 µM [rising, partial curve, poor fit] | 
CC(=O)N1CCc2cc(Br)cc(S(=O)(=O)N3CCN(C(=O)c4ccco4)CC3)c21 | -1.84% | 0.00517 µM [falling, full curve, poor fit] | 
CCC(=O)Nc1c(-c2ccc(Cl)cc2)c(=O)c2ccccc2n1C |  |  | 2.06 µM [falling, partial curve, poor fit]
NS(=O)(=O)c1cccc(NC(=O)CSc2nc3ccccc3n2-c2ccccc2)c1 | -17.8% | 29.1 µM [falling, single point] | 
CCn1c(=O)c2c(nc3n2CCCN3Cc2ccccc2)n(C)c1=O | 13.8% | 5.17 µM [rising, single point] | 
COc1ccc(C(c2c(O)cc(C)oc2=O)c2c(O)cc(C)oc2=O)cc1 | -43.9% |  | 1.16 µM [falling, partial curve, poor fit]
COCCN(C(=O)COC(=O)CCc1ccc(OC)cc1)c1c(N)n(Cc2ccccc2)c(=O)[nH]c1=O | -6.74% | 5.8 µM [falling, partial curve, poor fit] | 0.731 µM [falling, full curve, poor fit]
COC(=O)c1c(NC(C)=O)sc(Cc2ccccc2)c1C | -7.47% |  | 
COc1ccc(S(=O)(=O)N2CCCC(C(=O)NCC3CCCO3)C2)cc1OC (configuration not stated) |  | 0.291 µM [rising, single point] | 
O=C(CN1CCN(Cc2ccccc2Cl)C1=O)NCCCN1CCOCC1 | 7.1% |  | 
C=CCN(CC=C)S(=O)(=O)c1ccc2nc(NC(=O)C(C)C)sc2c1 | 16.4% | 4.11 µM [rising, partial curve] | 2.91 µM [rising, single point]

3 entries from above, arranged by SMILES length, smallest number first.
Structure (SMILES) | cell number change | AC50 [1] | AC50 [2]
O=C(CN1CCN(Cc2ccccc2Cl)C1=O)NCCCN1CCOCC1 | 7.1% |  | 
CC(C(=O)Nc1ccc(C#N)cc1)N(C)CC(=O)Nc1ccccc1Br (configuration not stated) | 81.1% | 16.4 µM [rising, single point] | 16.4 µM [rising, single point]
COc1ccc(C(c2c(O)cc(C)oc2=O)c2c(O)cc(C)oc2=O)cc1 | -43.9% |  | 1.16 µM [falling, partial curve, poor fit]
